Results from the supplement of paper PMC10849652.
Some of the results follow.

The chains behind the UniProt entries cited, without tags or fusion partners. Where a name states a change or a piece, a line headed by the entry shows the natural chain unless it says otherwise.
UniProt O75380, whole entry, looked up: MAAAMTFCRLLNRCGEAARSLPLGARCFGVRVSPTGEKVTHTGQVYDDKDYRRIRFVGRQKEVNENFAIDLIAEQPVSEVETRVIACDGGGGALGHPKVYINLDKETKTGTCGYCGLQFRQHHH
UniProt Q9UK23: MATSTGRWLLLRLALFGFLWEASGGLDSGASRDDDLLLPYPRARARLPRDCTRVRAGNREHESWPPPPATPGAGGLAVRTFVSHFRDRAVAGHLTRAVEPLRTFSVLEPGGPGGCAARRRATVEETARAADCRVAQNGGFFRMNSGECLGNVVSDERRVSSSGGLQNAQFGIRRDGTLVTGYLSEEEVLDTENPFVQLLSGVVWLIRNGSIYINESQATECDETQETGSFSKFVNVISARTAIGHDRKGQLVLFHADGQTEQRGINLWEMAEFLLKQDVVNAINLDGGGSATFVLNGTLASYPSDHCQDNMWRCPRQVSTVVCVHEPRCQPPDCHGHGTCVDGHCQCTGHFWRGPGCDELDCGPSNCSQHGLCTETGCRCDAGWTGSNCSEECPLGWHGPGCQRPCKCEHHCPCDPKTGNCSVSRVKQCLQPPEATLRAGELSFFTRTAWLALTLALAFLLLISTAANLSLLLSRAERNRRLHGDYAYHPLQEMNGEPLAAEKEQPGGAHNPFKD
UniProt O75306, whole entry, looked up: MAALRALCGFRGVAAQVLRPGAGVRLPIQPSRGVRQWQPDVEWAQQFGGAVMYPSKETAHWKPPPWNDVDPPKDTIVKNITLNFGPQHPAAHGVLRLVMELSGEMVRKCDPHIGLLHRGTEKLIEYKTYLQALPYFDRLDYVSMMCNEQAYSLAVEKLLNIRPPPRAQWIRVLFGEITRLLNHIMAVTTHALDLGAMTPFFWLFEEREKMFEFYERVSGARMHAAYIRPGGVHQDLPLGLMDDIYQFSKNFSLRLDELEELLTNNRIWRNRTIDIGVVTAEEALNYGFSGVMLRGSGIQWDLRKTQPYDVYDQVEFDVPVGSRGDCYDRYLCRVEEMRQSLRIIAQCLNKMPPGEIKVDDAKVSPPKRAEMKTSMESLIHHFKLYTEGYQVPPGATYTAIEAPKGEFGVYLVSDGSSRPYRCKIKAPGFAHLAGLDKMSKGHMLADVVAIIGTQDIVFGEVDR
UniProt P17050: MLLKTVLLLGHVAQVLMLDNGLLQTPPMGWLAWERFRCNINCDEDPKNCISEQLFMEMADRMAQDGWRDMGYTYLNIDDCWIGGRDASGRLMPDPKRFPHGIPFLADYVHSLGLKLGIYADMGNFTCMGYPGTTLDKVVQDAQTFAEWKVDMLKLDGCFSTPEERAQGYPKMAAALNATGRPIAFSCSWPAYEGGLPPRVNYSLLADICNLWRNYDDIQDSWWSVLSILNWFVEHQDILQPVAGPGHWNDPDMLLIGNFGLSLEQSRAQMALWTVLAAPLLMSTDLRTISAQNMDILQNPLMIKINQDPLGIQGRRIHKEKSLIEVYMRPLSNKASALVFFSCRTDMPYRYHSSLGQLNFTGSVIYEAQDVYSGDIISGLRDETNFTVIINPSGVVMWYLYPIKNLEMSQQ
UniProt Q9BPX3, whole entry, looked up: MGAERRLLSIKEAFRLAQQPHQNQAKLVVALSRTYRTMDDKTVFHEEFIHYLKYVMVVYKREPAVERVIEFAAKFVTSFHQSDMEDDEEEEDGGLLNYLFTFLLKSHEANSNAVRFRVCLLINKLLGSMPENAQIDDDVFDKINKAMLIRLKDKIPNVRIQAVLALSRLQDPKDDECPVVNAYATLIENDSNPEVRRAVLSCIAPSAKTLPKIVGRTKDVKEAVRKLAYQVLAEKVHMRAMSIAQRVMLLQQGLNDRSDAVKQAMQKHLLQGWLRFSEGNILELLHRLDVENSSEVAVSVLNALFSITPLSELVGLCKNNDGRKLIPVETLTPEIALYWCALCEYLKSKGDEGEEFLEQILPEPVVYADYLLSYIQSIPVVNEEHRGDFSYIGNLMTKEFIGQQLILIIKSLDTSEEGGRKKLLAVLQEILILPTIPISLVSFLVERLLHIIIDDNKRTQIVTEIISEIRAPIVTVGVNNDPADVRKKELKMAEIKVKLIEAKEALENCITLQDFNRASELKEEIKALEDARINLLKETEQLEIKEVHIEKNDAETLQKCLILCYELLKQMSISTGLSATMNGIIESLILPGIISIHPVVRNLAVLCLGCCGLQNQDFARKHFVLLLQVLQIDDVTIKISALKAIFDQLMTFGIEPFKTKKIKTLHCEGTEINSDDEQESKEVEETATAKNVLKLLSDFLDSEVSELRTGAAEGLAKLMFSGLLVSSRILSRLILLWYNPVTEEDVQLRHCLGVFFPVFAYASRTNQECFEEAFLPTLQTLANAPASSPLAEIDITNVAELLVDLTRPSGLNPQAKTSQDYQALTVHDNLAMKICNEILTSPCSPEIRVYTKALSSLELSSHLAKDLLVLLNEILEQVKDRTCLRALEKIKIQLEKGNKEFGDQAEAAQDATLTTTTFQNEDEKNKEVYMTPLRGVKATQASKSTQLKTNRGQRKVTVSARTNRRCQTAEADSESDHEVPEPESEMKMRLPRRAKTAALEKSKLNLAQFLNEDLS
UniProt Q6NZ67, whole entry, looked up: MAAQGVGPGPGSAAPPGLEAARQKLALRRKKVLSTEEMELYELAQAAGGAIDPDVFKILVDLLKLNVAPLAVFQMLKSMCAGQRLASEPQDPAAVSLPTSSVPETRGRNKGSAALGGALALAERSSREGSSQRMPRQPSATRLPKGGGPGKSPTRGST
UniProt O95544: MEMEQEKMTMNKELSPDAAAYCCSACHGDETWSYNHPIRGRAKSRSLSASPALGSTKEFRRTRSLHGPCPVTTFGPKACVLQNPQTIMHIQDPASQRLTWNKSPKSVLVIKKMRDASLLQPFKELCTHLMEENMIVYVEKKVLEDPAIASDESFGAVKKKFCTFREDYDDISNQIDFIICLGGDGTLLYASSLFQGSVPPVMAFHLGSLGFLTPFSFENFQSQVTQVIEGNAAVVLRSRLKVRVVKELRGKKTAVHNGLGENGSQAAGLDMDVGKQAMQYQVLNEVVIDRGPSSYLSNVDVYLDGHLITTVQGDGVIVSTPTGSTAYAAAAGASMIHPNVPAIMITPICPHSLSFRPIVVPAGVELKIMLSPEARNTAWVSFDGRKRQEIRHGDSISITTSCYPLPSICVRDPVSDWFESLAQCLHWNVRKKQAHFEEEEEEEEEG
UniProt Q9NVZ3: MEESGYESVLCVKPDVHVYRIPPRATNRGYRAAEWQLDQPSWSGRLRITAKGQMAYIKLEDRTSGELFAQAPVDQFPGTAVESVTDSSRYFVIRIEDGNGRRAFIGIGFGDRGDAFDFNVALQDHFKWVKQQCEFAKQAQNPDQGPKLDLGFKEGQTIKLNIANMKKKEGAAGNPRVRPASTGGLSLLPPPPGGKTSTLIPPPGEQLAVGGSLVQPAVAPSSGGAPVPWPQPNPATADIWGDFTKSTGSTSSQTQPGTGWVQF
UniProt Q9Y375: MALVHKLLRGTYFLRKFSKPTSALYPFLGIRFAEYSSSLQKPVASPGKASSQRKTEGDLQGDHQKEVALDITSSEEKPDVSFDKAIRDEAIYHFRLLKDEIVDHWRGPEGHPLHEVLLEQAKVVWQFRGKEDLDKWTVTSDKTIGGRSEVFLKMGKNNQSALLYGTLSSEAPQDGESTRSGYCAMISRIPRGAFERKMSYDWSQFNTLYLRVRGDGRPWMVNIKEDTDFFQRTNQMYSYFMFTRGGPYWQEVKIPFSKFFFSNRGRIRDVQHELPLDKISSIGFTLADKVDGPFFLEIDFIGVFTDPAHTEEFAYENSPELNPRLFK
UniProt O43639, whole entry, looked up: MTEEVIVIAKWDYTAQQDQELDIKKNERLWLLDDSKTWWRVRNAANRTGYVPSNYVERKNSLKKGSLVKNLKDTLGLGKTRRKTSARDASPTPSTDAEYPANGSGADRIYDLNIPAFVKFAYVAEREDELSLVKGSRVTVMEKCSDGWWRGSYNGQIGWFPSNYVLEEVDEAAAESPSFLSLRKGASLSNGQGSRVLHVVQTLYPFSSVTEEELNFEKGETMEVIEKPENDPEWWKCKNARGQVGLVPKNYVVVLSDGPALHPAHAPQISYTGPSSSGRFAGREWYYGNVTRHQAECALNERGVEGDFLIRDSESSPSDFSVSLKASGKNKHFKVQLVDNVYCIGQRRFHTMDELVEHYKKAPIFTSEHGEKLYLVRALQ
UniProt Q96HR8: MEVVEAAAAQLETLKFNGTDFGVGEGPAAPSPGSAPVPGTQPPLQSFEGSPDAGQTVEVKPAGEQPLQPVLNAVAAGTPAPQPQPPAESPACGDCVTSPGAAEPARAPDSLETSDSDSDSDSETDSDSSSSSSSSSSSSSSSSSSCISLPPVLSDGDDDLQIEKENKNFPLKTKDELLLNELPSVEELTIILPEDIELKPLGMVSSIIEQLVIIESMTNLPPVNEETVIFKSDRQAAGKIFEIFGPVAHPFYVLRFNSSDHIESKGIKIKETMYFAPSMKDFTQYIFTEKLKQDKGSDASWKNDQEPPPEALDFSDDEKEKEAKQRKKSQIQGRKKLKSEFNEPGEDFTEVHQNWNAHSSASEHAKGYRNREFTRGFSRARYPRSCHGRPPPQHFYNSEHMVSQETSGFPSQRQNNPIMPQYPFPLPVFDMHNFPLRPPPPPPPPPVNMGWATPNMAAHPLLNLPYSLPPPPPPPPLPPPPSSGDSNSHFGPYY
UniProt P62166, whole entry, looked up: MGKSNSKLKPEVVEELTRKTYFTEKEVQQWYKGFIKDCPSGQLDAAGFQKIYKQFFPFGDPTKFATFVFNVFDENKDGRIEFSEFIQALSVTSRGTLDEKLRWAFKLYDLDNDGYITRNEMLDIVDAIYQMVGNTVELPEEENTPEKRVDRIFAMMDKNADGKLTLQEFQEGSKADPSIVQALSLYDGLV
UniProt Q9BRA0: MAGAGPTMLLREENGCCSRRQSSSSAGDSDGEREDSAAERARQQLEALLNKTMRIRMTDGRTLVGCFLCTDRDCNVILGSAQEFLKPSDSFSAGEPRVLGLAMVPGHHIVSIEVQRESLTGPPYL
UniProt P19338, whole entry, looked up: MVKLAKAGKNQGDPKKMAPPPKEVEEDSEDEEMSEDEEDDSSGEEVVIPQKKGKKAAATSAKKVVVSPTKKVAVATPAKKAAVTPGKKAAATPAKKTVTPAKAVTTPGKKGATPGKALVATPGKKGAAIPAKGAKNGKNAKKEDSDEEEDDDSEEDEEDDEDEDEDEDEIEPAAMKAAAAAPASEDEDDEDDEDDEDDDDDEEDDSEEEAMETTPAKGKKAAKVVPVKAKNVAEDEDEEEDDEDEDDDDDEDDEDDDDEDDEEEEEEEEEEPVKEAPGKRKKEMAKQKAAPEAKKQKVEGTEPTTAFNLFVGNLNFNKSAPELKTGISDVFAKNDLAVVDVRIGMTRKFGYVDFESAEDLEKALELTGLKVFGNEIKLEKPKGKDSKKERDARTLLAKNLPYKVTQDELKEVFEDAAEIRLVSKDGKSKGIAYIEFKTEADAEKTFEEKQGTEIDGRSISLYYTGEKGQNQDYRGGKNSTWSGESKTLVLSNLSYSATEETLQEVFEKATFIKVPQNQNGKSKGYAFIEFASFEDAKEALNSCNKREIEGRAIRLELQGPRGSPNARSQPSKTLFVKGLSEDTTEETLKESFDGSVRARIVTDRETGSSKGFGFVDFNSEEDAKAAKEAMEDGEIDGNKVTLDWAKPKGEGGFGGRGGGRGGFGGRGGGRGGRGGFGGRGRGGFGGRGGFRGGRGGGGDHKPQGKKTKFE
UniProt Q9UBB6: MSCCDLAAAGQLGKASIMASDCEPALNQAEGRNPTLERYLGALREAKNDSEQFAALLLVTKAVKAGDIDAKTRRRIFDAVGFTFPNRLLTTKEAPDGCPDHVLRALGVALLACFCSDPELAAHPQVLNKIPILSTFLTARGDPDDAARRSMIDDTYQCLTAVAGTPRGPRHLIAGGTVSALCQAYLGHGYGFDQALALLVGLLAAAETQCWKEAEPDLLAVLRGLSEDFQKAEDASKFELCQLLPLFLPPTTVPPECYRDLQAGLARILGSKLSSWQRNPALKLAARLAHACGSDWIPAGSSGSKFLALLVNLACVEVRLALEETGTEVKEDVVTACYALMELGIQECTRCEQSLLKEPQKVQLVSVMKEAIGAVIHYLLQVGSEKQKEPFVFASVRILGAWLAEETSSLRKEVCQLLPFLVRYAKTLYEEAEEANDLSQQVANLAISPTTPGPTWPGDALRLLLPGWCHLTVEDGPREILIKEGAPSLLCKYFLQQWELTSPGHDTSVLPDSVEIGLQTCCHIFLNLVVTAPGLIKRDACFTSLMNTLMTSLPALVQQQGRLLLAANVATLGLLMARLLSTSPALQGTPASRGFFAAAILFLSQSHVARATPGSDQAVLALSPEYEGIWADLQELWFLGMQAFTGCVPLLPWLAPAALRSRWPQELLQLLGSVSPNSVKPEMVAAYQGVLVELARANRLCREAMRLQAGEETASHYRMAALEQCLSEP
UniProt Q9BT67: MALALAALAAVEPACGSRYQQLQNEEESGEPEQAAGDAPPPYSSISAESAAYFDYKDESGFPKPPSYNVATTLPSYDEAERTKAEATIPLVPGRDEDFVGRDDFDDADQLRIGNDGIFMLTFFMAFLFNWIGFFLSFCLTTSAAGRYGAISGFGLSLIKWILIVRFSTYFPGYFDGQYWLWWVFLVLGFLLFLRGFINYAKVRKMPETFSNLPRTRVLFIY

Experiments:
Experiment in all cases: log2 fold change, soluble protein after heating vs DMSO (PISA); higher = thermal stabilisation; K562 cells, 10 uM, 30 min; active = over 0.2 and 3.5 SD of the protein, either way, in both replicates (recomputed)
[1] = compound: COC1=CC=C(C=C1)CN2C=CC3=C2C=C(C=C3)C(=O)NO
Method in brief: (§1)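 Values are thermal stability changes relative to control samples and are taken from duplicates. They are stated as log2 fold changes. Before quantification by TMTpro 16plex LC-MS/MS with equalised channel sums, K562 cells at 2×10^6 cells/mL were treated with 10 μM compound for 30 min, heated in aliquots for 3 min across 48°C-58°C, pooled, extracted in PBS with 0.5% NP-40 at 4°C, and centrifuged at 21,000xg for 90 min to give the soluble supernatant.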

filanesib = compound: CON(C)C(=O)N1N=C(c2cc(F)ccc2F)S[C@@]1(CCCN)c1ccccc1 [filanesib]
Method in brief: as §1

zotarolimus = compound: CO[C@H]1C[C@@H]2CC[C@@H](C)[C@@](O)(O2)C(=O)C(=O)N2CCCC[C@H]2C(=O)O[C@H]([C@H](C)C[C@@H]2CC[C@H](n3cnnn3)[C@H](OC)C2)CC(=O)[C@H](C)/C=C(\C)[C@@H](O)[C@@H](OC)C(=O)[C@H](C)C[C@H](C)/C=C/C=C/C=C/1C [zotarolimus]
Method in brief: as §1

idasanutlin = compound: COc1cc(C(=O)O)ccc1NC(=O)[C@@H]1N[C@@H](CC(C)(C)C)[C@](C#N)(c2ccc(Cl)cc2F)[C@H]1c1cccc(Cl)c1F [idasanutlin]
Method in brief: as §1

alisertib = compound: COc1cc(Nc2ncc3c(n2)-c2ccc(Cl)cc2C(c2c(F)cccc2OC)=NC3)ccc1C(=O)O [alisertib]
Method in brief: as §1

[2] = compound: COc1cc2nc(-c3cc(F)ccc3O)nc(N[C@@H]3CNC[C@H]3C(C)(C)O)c2cc1OC
Method in brief: as §1

gefitinib = compound: COc1cc2ncnc(Nc3ccc(F)c(Cl)c3)c2cc1OCCCN1CCOCC1 [gefitinib]
Method in brief: as §1

[3] = compound: COc1cccc2cc(-c3nc([C@H]4CC[C@H](C(=O)O)CC4)n4ncnc(N)c34)[nH]c12
Method in brief: as §1

lapatinib = compound: CS(=O)(=O)CCNCc1ccc(-c2ccc3ncnc(Nc4ccc(OCc5cccc(F)c5)c(Cl)c4)c3c2)o1 [lapatinib]
Method in brief: as §1

pictilisib = compound: CS(=O)(=O)N1CCN(Cc2cc3nc(-c4cccc5[nH]ncc45)nc(N4CCOCC4)c3s2)CC1 [pictilisib]
Method in brief: as §1

Measured: log2 fold change

NAV1 (UniProt Q8NEY1)
inactive: [1] -0.107 | filanesib 0.12 | zotarolimus 0.08 | idasanutlin 0.037 | alisertib 0.007 | [2] -0.329 | gefitinib 0.157 | [3] -0.177 | lapatinib 0.044 | pictilisib -0.004

NDUFS6 (UniProt O75380)
inactive: [1] -0.093 | filanesib -0.004 | zotarolimus -0.064 | idasanutlin 0.025 | alisertib -0.026 | [2] -0.101 | gefitinib -0.065 | [3] 0.042 | lapatinib 0 | pictilisib -0.025

NAGPA (UniProt Q9UK23)
inactive: [1] -0.025 | filanesib -0.046 | zotarolimus -0.099 | idasanutlin 0.054 | alisertib -0.069 | [2] -0.044 | gefitinib 0.001 | [3] 0.248 | lapatinib 0.139 | pictilisib 0.134

NDUFS2 (UniProt O75306)
inactive: [1] 0.016 | filanesib -0.136 | zotarolimus 0.029 | idasanutlin -0.107 | alisertib 0.001 | [2] -0.041 | gefitinib -0.011 | [3] 0.038 | lapatinib 0.022 | pictilisib 0.006

NECAP1 (UniProt Q8NC96)
inactive: [1] -0.002 | filanesib -0.053 | zotarolimus 0.071 | idasanutlin -0.02 | alisertib -0.021 | [2] -0.001 | gefitinib 0.022 | [3] 0.046 | lapatinib 0.004 | pictilisib 0.114

NAGA (UniProt P17050)
inactive: [1] -0.026 | filanesib -0.078 | zotarolimus -0.067 | idasanutlin 0.036 | alisertib 0.074 | [2] 0.005 | gefitinib -0.012 | [3] 0.079 | lapatinib 0.007 | pictilisib -0.044

NCAPG (UniProt Q9BPX3)
inactive: [1] 0.079 | filanesib -0.018 | zotarolimus 0.054 | idasanutlin -0.064 | alisertib 0.03 | [2] 0.038 | gefitinib 0.022 | [3] -0.116 | lapatinib 0 | pictilisib 0.071

NDUFS8 (UniProt O00217)
inactive: [1] -0.07 | filanesib -0.122 | zotarolimus -0.003 | idasanutlin -0.147 | alisertib -0.15 | [2] -0.069 | gefitinib -0.028 | [3] 0.081 | lapatinib 0.01 | pictilisib 0.018

NEDD4 isoform 4 (UniProt P46934)
inactive: [1] 0.036 | filanesib -0.02 | zotarolimus 0.064 | idasanutlin -0.042 | alisertib 0.053 | [2] 0.027 | gefitinib 0.074 | [3] -0.029 | lapatinib 0.028 | pictilisib -0.017

NACC1 (UniProt Q96RE7)
inactive: [1] 0.009 | filanesib -0.116 | zotarolimus 0.103 | idasanutlin 0.02 | alisertib 0.016 | [2] -0.198 | gefitinib 0.021 | [3] 0.024 | lapatinib -0.031 | pictilisib -0.034

MZT2B (UniProt Q6NZ67)
inactive: [1] -0.072 | filanesib -0.002 | zotarolimus -0.025 | idasanutlin 0.184 | alisertib 0.049 | [2] -0.124 | gefitinib -0.082 | [3] -0.035 | lapatinib 0.059 | pictilisib -0.071

NADK (UniProt O95544)
inactive: [1] -0.002 | filanesib -0.016 | zotarolimus -0.009 | idasanutlin 0.017 | alisertib -0.093 | [2] 0.002 | gefitinib -0.014 | [3] 0.058 | lapatinib 0 | pictilisib 0.013

NECAP2 (UniProt Q9NVZ3)
inactive: [1] -0.002 | filanesib -0.019 | zotarolimus 0.029 | idasanutlin -0.03 | alisertib -0.062 | [2] -0.003 | gefitinib -0.002 | [3] 0.037 | lapatinib 0.022 | pictilisib 0.049

NAA15, A0A0B4J1W3
inactive: [1] 0.118 | filanesib 0.131 | zotarolimus 0.019 | idasanutlin -0.118 | alisertib 0.1 | [2] 0.076 | gefitinib -0.043 | [3] -0.078 | lapatinib -0.117 | pictilisib 0.016

NDUFAF1 (UniProt Q9Y375)
inactive: [1] 0.025 | filanesib -0.028 | zotarolimus -0.061 | idasanutlin -0.061 | alisertib -0.027 | [2] -0.013 | gefitinib -0.022 | [3] 0.034 | lapatinib -0.009 | pictilisib -0.022

NCK2 (UniProt O43639)
inactive: [1] -0.062 | filanesib -0.089 | zotarolimus 0.052 | idasanutlin 0.04 | [2] 0.267 | gefitinib 0.084 | lapatinib -0.257 | pictilisib -0.046

NDUFAF7 (UniProt Q7L592)
inactive: [1] 0.118 | filanesib -0.039 | zotarolimus 0.079 | idasanutlin -0.027 | alisertib 0.084 | [2] -0.059 | gefitinib 0.125 | [3] 0.174 | lapatinib -0.024 | pictilisib 0.278

NACA4P (UniProt Q9BZK3)
inactive: [1] 0.122 | filanesib -0.063 | zotarolimus 0.135 | idasanutlin -0.154 | alisertib 0.056 | gefitinib -0.199 | [3] 0.101

NAF1 (UniProt Q96HR8)
inactive: [1] -0.016 | filanesib 0.044 | zotarolimus 0.041 | idasanutlin -0.008 | alisertib -0.02 | [2] 0.028 | gefitinib -0.072 | [3] 0.04 | lapatinib 0.026 | pictilisib 0.053

NCS1 (UniProt P62166)
inactive: [1] 0.001 | filanesib -0.06 | zotarolimus 0.009 | idasanutlin -0.045 | alisertib -0.039 | [2] -0.011 | gefitinib -0.014 | [3] -0.002 | pictilisib 0.023

NADSYN1 (UniProt Q6IA69)
inactive: [1] -0.007 | filanesib -0.011 | zotarolimus 0.004 | idasanutlin 0.058 | alisertib -0.108 | [2] -0.061 | gefitinib 0.026 | [3] 0.049 | lapatinib 0.098 | pictilisib 0.009

NAAA (UniProt Q02083)
inactive: [1] 0.035 | filanesib -0.037 | zotarolimus 0.214 | alisertib 0.113 | [2] 0.011 | gefitinib 0.106 | [3] 0.141 | lapatinib 0.053 | pictilisib -0.042

NAA35 (UniProt Q5VZE5)
inactive: [1] -0.036 | filanesib -0.063 | zotarolimus 0.016 | idasanutlin -0.021 | alisertib 0.079 | [2] 0.026 | gefitinib 0.002 | [3] -0.033 | lapatinib -0.005 | pictilisib -0.001

NDUFB9 (UniProt Q9Y6M9)
inactive: [1] -0.05 | filanesib -0.019 | zotarolimus 0.008 | idasanutlin -0.027 | alisertib -0.076 | [2] 0.072 | gefitinib -0.02 | [3] 0.03 | lapatinib -0.038 | pictilisib 0.062

NAA38 isoform 2 (UniProt Q9BRA0)
inactive: [1] 0.033 | filanesib -0.014 | zotarolimus 0.001 | idasanutlin -0.045 | alisertib 0.044 | [2] -0.005 | gefitinib 0.02 | [3] 0.052 | lapatinib 0.062 | pictilisib 0.023

NCOA3 (UniProt Q9Y6Q9)
inactive: [1] 0.138 | filanesib 0.091 | zotarolimus 0.033 | [2] -0.02 | gefitinib 0.188 | lapatinib 0.09 | pictilisib 0.045

NDC1 (UniProt Q9BTX1)
inactive: [1] -0.066 | filanesib -0.014 | zotarolimus 0.005 | idasanutlin -0.025 | alisertib -0.035 | [2] 0 | gefitinib 0.017 | [3] 0.036 | lapatinib -0.012 | pictilisib 0.017

NCL (UniProt P19338)
inactive: [1] -0.091 | filanesib 0.454 | zotarolimus 0.026 | idasanutlin 0.274 | alisertib -0.16 | [2] -0.099 | gefitinib -0.022 | [3] -0.217 | lapatinib 0.159 | pictilisib -0.085

Two neighbouring records out of the list so far, quoted:
NDUFB9 (UniProt Q9Y6M9)
inactive: [1] -0.05 | filanesib -0.019 | zotarolimus 0.008 | idasanutlin -0.027 | alisertib -0.076 | [2] 0.072 | gefitinib -0.02 | [3] 0.03 | lapatinib -0.038 | pictilisib 0.062

NAA38 isoform 2 (UniProt Q9BRA0)
inactive: [1] 0.033 | filanesib -0.014 | zotarolimus 0.001 | idasanutlin -0.045 | alisertib 0.044 | [2] -0.005 | gefitinib 0.02 | [3] 0.052 | lapatinib 0.062 | pictilisib 0.023

The list continues.

NDST1 (UniProt P52848)
inactive: [1] -0.069 | filanesib 0.037 | zotarolimus 0.133 | idasanutlin 0.014 | alisertib -0.001 | [2] 0.09 | gefitinib 0.009 | [3] 0.122 | lapatinib 0.047 | pictilisib -0.009

NCDN isoform 3 (UniProt Q9UBB6)
inactive: [1] 0.009 | filanesib 0.018 | zotarolimus 0.055 | idasanutlin -0.031 | alisertib 0.129 | [2] 0.129 | gefitinib 0.017 | [3] 0.109 | lapatinib -0.111 | pictilisib 0.115

NAMPT (UniProt C9JF35)
inactive: [1] -0.063 | filanesib 0.048 | zotarolimus -0.062 | alisertib -0.041 | [2] 0.029 | gefitinib 0.039 | [3] 0.015 | lapatinib -0.047

NDFIP1 (UniProt Q9BT67)
inactive: [1] 0.051 | filanesib -0.134 | zotarolimus 0.106 | idasanutlin -0.034 | alisertib -0.105 | gefitinib -0.155 | [3] -0.14 | pictilisib 0.228

NDUFB10 (UniProt O96000)
inactive: [1] 0.044 | filanesib -0.025 | zotarolimus 0.006 | idasanutlin -0.035 | alisertib -0.021 | [2] -0.047 | gefitinib 0 | [3] 0.05 | lapatinib -0.035 | pictilisib 0.082
